Results published in PMC7924758, “IAA3-mediated repression of PIF proteins coordinates light and auxin signaling in Arabidopsis” (PLoS Genetics, 2021).
Results are given in words; binding and its absence hold for the method and conditions named. Binding seen in cells or lysates may run through a third protein. Some entries that bind do so weakly or less than the wild type. Where a sequence is shown, tags or fusion partners need not be part of it.

T1: IAA3 fused to the C-terminal fragment of luciferase (c-LUC) (Arabidopsis thaliana) (UniProt Q38822)
T1 sequence: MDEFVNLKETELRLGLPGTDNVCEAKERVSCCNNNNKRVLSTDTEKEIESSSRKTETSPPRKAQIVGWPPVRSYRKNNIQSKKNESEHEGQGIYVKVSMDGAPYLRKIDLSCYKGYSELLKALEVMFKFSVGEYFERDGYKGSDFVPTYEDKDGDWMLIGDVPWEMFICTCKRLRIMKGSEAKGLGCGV


Legend:
[1] = biological target: T1, IAA3 fused to the C-terminal fragment of luciferase (c-LUC) (Arabidopsis thaliana); assay: split reporter; firefly luciferase complementation imaging (LCI) in agroinfiltrated N. benthamiana leaves; PIFs on nLUC, IAA3 on cLUC; 1 mM luciferin
[2] = biological target: T1, IAA3 fused to the C-terminal fragment of luciferase (c-LUC) (Arabidopsis thaliana); assay: split reporter; firefly luciferase complementation imaging (LCI) in Arabidopsis protoplasts co-transformed with nLUC- and cLUC-tagged constructs, 12 to 16 h in darkness

Row | binding [1] | binding [2] | Binder
1 | binds | binds | PIF1 fused to the N-terminal fragment of luciferase (n-LUC) (protein, UniProt Q8GZM7 1-478) MHHFVPDFDTDDDYVNNHNSSLNHLPRKSITTMGEDDDLMELLWQNGQVVVQNQRLHTKKPSSSPPKLLPSMDPQQQPSSDQNLFIQEDEMTSWLHYPLRDDDFCSDLLFSAAPTATATATVSQVTAARPPVSSTNESRPPVRNFMNFSRLRGDFNNGRGGESGPLLSKAVVRESTQVSPSATPSAAASESGLTRRTDGTDSSAVAGGGAYNRKGKAVAMTAPAIEITGTSSSVVSKSEIEPEKTNVDDRKRKEREATTTDETESRSEETKQARVSTTSTKRSRAAEVHNLSERKRRDRINERMKALQELIPRCNKSDKASMLDEAIEYMKSLQLQIQMMSMGCGMMPMMYPGMQQYMPHMAMGMGMNQPIPPPSFMPFPNMLAAQRPLPTQTHMAGSGPQYPVHASDPSRVFVPNQQYDPTSGQPQYPAGYTDPYQQFRGLHPTQPPQFQNQATSYPSSSRVSSSKESEDHGNHTTG
2 | binds | binds | PIF5 fused to the N-terminal fragment of luciferase (n-LUC) (protein, UniProt Q84LH8 1-444) MEQVFADWNFEDNFHMSTNKRSIRPEDELVELLWRDGQVVLQSQARREPSVQVQTHKQETLRKPNNIFLDNQETVQKPNYAALDDQETVSWIQYPPDDVIDPFESEFSSHFFSSIDHLGGPEKPRTIEETVKHEAQAMAPPKFRSSVITVGPSHCGSNQSTNIHQATTLPVSMSDRSKNVEERLDTSSGGSSGCSYGRNNKETVSGTSVTIDRKRKHVMDADQESVSQSDIGLTSTDDQTMGNKSSQRSGSTRRSRAAEVHNLSERRRRDRINERMKALQELIPHCSRTDKASILDEAIDYLKSLQMQLQVMWMGSGMAAAAAAAASPMMFPGVQSSPYINQMAMQSQMQLSQFPVMNRSAPQNHPGLVCQNPVQLQLQAQNQILSEQLARYMGGIPQMPPAGNQMQTVQQQPADMLGFGSPAGPQSQLSAPATTDSLHMGKIG
